PubChem BioAssay AID1259308 – NCATS, 2017

Screen: 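Knock-downs that increase output of a recombinant reporter protein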 (primary screen)
Cell system: human HEK293 embryonic kidney cells stably expressing firefly luciferase (HEK-CMV-Luc2-Hygro)
Reagents: single siRNA against human genes, 0.8 pmol siRNA per well
Time to read-out: 72 h
Read-out: 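Luciferase light (ONE-Glo) measured on one replicate plate set and viability (CellTiter-Glo) on the other, scaled to a negative control siRNA, with robust z-scores and luciferase per cell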
Direction: total luciferase, z-score and total luciferase, % of control: higher = more reporter protein produced; luciferase per cell, z-score: higher = more reporter output per viable cell
Hit rule: 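Active when the median/MAD z-score for overall luciferase is greater than 3; a gene was taken forward for validation with new siRNAs if at least two of its three siRNAs passed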
Calls: active = raised luciferase; inactive = no rise
The whole screen tested about 59,000 reagents; below is an unselected part. Of all reagents, about 1,510 (2.6%) were called active. 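Calls use total luciferase alone and ignore viability, so some active siRNAs may act by altering cell number.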 Unmarked entries are inactive. Not all columns of the deposit are shown.

gene knocked down,PubChem SID,"total luciferase, z-score","total luciferase, % of control","luciferase per cell, z-score"
B4GALNT2,SID160756256,-1.35,55.1,-1.23
B4GALNT2,SID160756257,0.657,95,0.28
B4GALNT2,SID160756258,-0.429,73.3,-0.643
DEFB119,SID160727970,1.75,117,1.3
DEFB119,SID160727971,-0.541,71.1,-0.673
DEFB119,SID160727972,-1.66,48.9,-1.13
SELENOK,SID160746899,-0.0407,81.1,0.357
SELENOK,SID160746900,-0.0456,81,-0.184
SELENOK,SID160746901,-0.828,65.4,-0.971
TEX56P,SID160767534,0.687,95.5,2.46
TEX56P,SID160767536,3.59 (active),153,3.54
TEX56P,SID160767537,-0.552,70.9,-0.266
TMCC1,SID160732735,-0.0887,80.1,-0.402
TMCC1,SID160735230,-0.732,67.3,0.13
TMCC1,SID160735240,0.821,98.2,1.05
CEACAM16,SID160733207,0.259,87,0.392
CEACAM16,SID160765890,0.00374,82,0.258
CEACAM16,SID160765892,-0.532,71.3,-0.387
SMCP,SID160777069,-0.58,70.3,-0.177
SMCP,SID160777070,0.204,85.9,-0.614
SMCP,SID160777071,-1.05,61,-1.04
OR2AG1,SID160732518,-1.19,58.2,-0.374
OR2AG1,SID160758102,-1.22,57.5,-0.927
OR2AG1,SID160758103,-0.308,75.8,-0.67
ZWILCH,SID160742834,-0.908,63.8,-0.654
ZWILCH,SID160742835,-0.252,76.9,-0.072
ZWILCH,SID160742836,-0.0765,80.4,1.87
RAC3,SID160715580,-2.98,22.5,-2.87
RAC3,SID160724021,1.65,115,0.66
RAC3,SID160731638,0.625,94.3,0.49
MECOM,SID160762383,-1.63,49.5,-1.1
MECOM,SID160762394,1.88,119,1.39
MECOM,SID160762405,3.97 (active),161,1.86
MECOM,SID160777097,0.442,90.7,0.389
MECOM,SID160777098,1.09,104,1.04
MECOM,SID160777099,-0.613,69.7,-0.825
RTL8A,SID160732854,1.16,105,1.36
RTL8A,SID160737581,-0.765,66.7,-0.513
RTL8A,SID160737582,0.914,100,0.443
ZDHHC18,SID160751940,1.34,108,0.803
ZDHHC18,SID160751941,-1.52,51.7,0.123
ZDHHC18,SID160751942,-0.399,74,-0.168
KCNQ1,SID160776239,1.07,103,0.952
KCNQ1,SID160776240,0.203,85.9,0.199
KCNQ1,SID160776241,0.219,86.2,-0.171
COG7,SID160754152,2.24,126,1.63
COG7,SID160754153,-1.19,58.3,-1.08
COG7,SID160754154,-0.09,80.1,0.589
LNPEP,SID160776684,-0.496,72,-0.597
LNPEP,SID160776685,-0.761,66.8,-1.21
LNPEP,SID160776686,3.21 (active),146,2.27
SLC30A5,SID160729959,1.13,104,0.872
SLC30A5,SID160730062,-0.741,67.1,-1.15
SLC30A5,SID160730167,-0.0994,79.9,-0.179
DCTPP1,SID160748594,0.854,98.9,0.808
DCTPP1,SID160748595,-1.01,61.8,-1.29
DCTPP1,SID160748596,-0.478,72.4,-0.824
LGALS1,SID160723905,0.838,98.6,0.542
LGALS1,SID160776580,0.0641,83.2,0.936
LGALS1,SID160776581,0.122,84.3,-0.244
ZNF571,SID160731360,-0.175,78.4,-0.155
ZNF571,SID160740471,-0.145,79,-0.22
ZNF571,SID160740472,1.42,110,1.94
ADAP2,SID160744403,0.0708,83.3,0.399
ADAP2,SID160744404,-0.646,69,-0.887
ADAP2,SID160744405,-0.794,66.1,-0.184
SPDYE5,SID160725480,0.507,92,0.323
SPDYE5,SID160725481,0.155,85,-0.586
SPDYE5,SID160768193,-0.107,79.8,-0.491
LDLRAD3,SID160758028,-0.193,78,0.0255
LDLRAD3,SID160758029,0.373,89.3,-0.0536
LDLRAD3,SID160758030,-0.416,73.6,0.00467
GID8,SID160742693,0.408,90,0.417
GID8,SID160742694,2.18,125,1.6
GID8,SID160742695,-0.192,78.1,-0.305

Called active (from the list above):
gene knocked down,PubChem SID,"total luciferase, z-score","total luciferase, % of control","luciferase per cell, z-score"
TEX56P,SID160767536,3.59 (active),153,3.54
MECOM,SID160762405,3.97 (active),161,1.86
LNPEP,SID160776686,3.21 (active),146,2.27
